Some of these results come from one statement about several compounds together.
Key:
Format in all cases: in vivo
[1] = system: Diabrotica balteata; assay: Example B1: Diabrotica balteata (corn root worm), maize sprouts sprayed; conditions: application rate of 200 ppm; L2 larvae; 4 days after infestation
Protocol: Maize sprouts placed onto an agar layer in 24-well microtiter plates were treated with aqueous test solutions prepared from 10′000 ppm DMSO stock solutions by spraying. After drying, the plates were infested with L2 larvae (6 to 10 per well). The samples were assessed for mortality and growth inhibition in comparison to untreated samples 4 days after infestation. The following compounds gave an effect of at least 80% in at least one of the two categories (mortality or growth inhibition) at an application rate of 200 ppm: A01, A02, A03, A04, A05, A06, A07, A08, A09, A10, A11, A12, A13, A14, A15, A16, A17, A18, A19, A20, A21, A22, A23, A24, A25, A26, A27, A28, B01

[2] = system: Euschistus heros; assay: Example B2: Euschistus heros (neotropical brown stink bug), soybean leaves sprayed; conditions: application rate of 200 ppm; N2 nymphs; 5 days after infestation
Protocol: Soybean leaves on agar in 24-well microtiter plates were sprayed with aqueous test solutions prepared from 10′000 ppm DMSO stock solutions. After drying the leaves were infested with N2 nymphs. The samples were assessed for mortality and growth inhibition in comparison to untreated samples 5 days after infestation. The following compounds gave an effect of at least 80% in at least one of the two categories (mortality or growth inhibition) at an application rate of 200 ppm: A01, A02, A03, A04, A05, A06, A07, A08, A09, A10, A11, A12, A13, A14, A15, A16, A17, A18, A19, A20, A21, A22, A23, A24, A25, A26, A27, A28, B01

[3] = system: Myzus persicae; assay: Example B3: Myzus persicae (green peach aphid), intrinsic activity; conditions: test rate of 12 ppm; 5 days after infestation
Protocol: Test compounds prepared from 10′000 ppm DMSO stock solutions were applied by pipette into 24-well microtiter plates and mixed with sucrose solution. The plates were closed with a stretched Parafilm. A plastic stencil with 24 holes was placed onto the plate and infested pea seedlings were placed directly on the Parafilm. The infested plate was closed with a gel blotting paper and another plastic stencil and then turned upside down. The samples were assessed for mortality 5 days after infestation.

[4] = system: Plutella xylostella; assay: Example B4: Plutella xylostella (diamond back moth), artificial diet; conditions: application rate of 200 ppm; L2 larvae; 5 days after infestation
Protocol: 24-well microtiter plates with artificial diet were treated with aqueous test solutions prepared from 10′000 ppm DMSO stock solutions by pipetting. After drying, the plates were infested with L2 larvae (10 to 15 per well). The samples were assessed for mortality and growth inhibition in comparison to untreated samples 5 days after infestation. The following compounds gave an effect of at least 80% in at least one of the two categories (mortality or growth inhibition) at an application rate of 200 ppm: A01, A02, A03, A04, A05, A06, A07, A08, A09, A10, A11, A12, A13, A14, A15, A16, A17, A18, A19, A20, A21, A22, A23, A24, A25, A26, A27, A28, B01

[5] = system: Spodoptera littoralis; assay: Example B5: Spodoptera littoralis (Egyptian cotton leaf worm), feeding/contact activity; conditions: application rate of 200 ppm; L1 larvae; 3 days after infestation
Protocol: (§1) Cotton leaf discs were placed onto agar in 24-well microtiter plates and sprayed with aqueous test solutions prepared from 10′000 ppm DMSO stock solutions. After drying the leaf discs were infested with five L1 larvae. The samples were assessed for mortality 3 days after infestation.

[6] = system: Tetranychus urticae; assay: Example B6: Tetranychus urticae (two-spotted spider mite), feeding/contact activity; conditions: application rate of 200 ppm; 8 days after infestation
Protocol: as §1, with “Bean” for “Cotton”, “on” for “were placed onto”, “were” for “and”, “a mite population of mixed ages.” for “five L1 larvae.”, “on mixed population (mobile stages) 8” for “3”

[7] = system: Thrips tabaci; assay: Example B7: Thrips tabaci (onion thrips), feeding/contact activity; conditions: application rate of 200 ppm; mixed ages; 6 days after infestation
Protocol: as §1, with “Sunflower” for “Cotton”, “on” for “onto”, “a thrips population of mixed ages.” for “five L1 larvae.”, “6” for “3”

[8] = system: Myzus persicae; assay: Example B8: Myzus persicae (green peach aphid), feeding/contact activity; conditions: application rate of 200 ppm; mixed ages; 6 days after infestation
Protocol: Sunflower leaf discs were placed onto agar in a 24-well microtiter plate and sprayed with aqueous test solutions prepared from 10′000 ppm DMSO stock solutions. After drying, the leaf discs were infested with an aphid population of mixed ages. The samples were assessed for mortality 6 days after infestation.

Cc1cc(C2=NOC(c3cc(Cl)c(F)c(Cl)c3)(C(F)(F)F)C2)ccc1C(=O)NC1CN(S(=O)(=O)CC(F)(F)F)C1 (centres unmarked) [Compound A06]
at least 80%: effect in at least one of the two categories (mortality or growth inhibition) [1] | effect in at least one of the two categories (mortality or growth inhibition) [2] | mortality [3] | effect in at least one of the two categories (mortality or growth inhibition) [4] | mortality [5] | mortality on mixed population (mobile stages) [6] | mortality [7] | mortality [8]

Cc1cc(C2=NOC(c3cc(Cl)c(Cl)c(Cl)c3)(C(F)(F)F)C2)ccc1C(=O)NC1CN(S(C)(=O)=O)C1 (centres unmarked) [Compound A07]
at least 80%: effect in at least one of the two categories (mortality or growth inhibition) [1] | effect in at least one of the two categories (mortality or growth inhibition) [2] | mortality [3] | effect in at least one of the two categories (mortality or growth inhibition) [4] | mortality [5] | mortality on mixed population (mobile stages) [6] | mortality [7] | mortality [8]

Cc1cc(C2=NOC(c3cc(Cl)cc(Cl)c3)(C(F)(F)F)C2)ccc1C(=O)NC1CN(S(=O)(=O)CF)C1 (centres unmarked) [Compound A08]
at least 80%: effect in at least one of the two categories (mortality or growth inhibition) [1] | effect in at least one of the two categories (mortality or growth inhibition) [2] | mortality [3] | effect in at least one of the two categories (mortality or growth inhibition) [4] | mortality [5] | mortality on mixed population (mobile stages) [6] | mortality [7] | mortality [8]

Cc1cc(C2=NOC(c3cc(Cl)cc(Cl)c3)(C(F)(F)F)C2)ccc1C(=O)NC1CN(S(=O)(=O)C(F)(F)F)C1 (centres unmarked) [Compound A09]
at least 80%: effect in at least one of the two categories (mortality or growth inhibition) [1] | effect in at least one of the two categories (mortality or growth inhibition) [2] | mortality [3] | effect in at least one of the two categories (mortality or growth inhibition) [4] | mortality [5] | mortality on mixed population (mobile stages) [6] | mortality [7] | mortality [8]

Cc1cc(C2=NOC(c3cc(Cl)c(F)c(Cl)c3)(C(F)(F)F)C2)ccc1C(=O)NC1CN(S(=O)(=O)C(F)F)C1 (centres unmarked) [Compound A12]
at least 80%: effect in at least one of the two categories (mortality or growth inhibition) [1] | effect in at least one of the two categories (mortality or growth inhibition) [2] | mortality [3] | effect in at least one of the two categories (mortality or growth inhibition) [4] | mortality [5] | mortality on mixed population (mobile stages) [6] | mortality [7] | mortality [8]

CCS(=O)(=O)N1CC(NC(=O)c2ccc(C3=NOC(c4cc(Cl)c(Cl)c(Cl)c4)(C(F)(F)F)C3)cc2C)C1 (centres unmarked) [Compound A13]
at least 80%: effect in at least one of the two categories (mortality or growth inhibition) [1] | effect in at least one of the two categories (mortality or growth inhibition) [2] | mortality [3] | effect in at least one of the two categories (mortality or growth inhibition) [4] | mortality [5] | mortality on mixed population (mobile stages) [6] | mortality [7] | mortality [8]

Cc1cc(C2=NOC(c3cc(Cl)c(Cl)c(Cl)c3)(C(F)(F)F)C2)ccc1C(=O)NC1CN(S(=O)(=O)C(F)F)C1 (centres unmarked) [Compound A14]
at least 80%: effect in at least one of the two categories (mortality or growth inhibition) [1] | effect in at least one of the two categories (mortality or growth inhibition) [2] | mortality [3] | effect in at least one of the two categories (mortality or growth inhibition) [4] | mortality [5] | mortality on mixed population (mobile stages) [6] | mortality [7] | mortality [8]

Cc1cc(C2=NOC(c3cc(Cl)c(F)c(Cl)c3)(C(F)(F)F)C2)ccc1C(=O)NC1CN(S(=O)(=O)C(F)(F)F)C1 (centres unmarked) [Compound A15]
at least 80%: effect in at least one of the two categories (mortality or growth inhibition) [1] | effect in at least one of the two categories (mortality or growth inhibition) [2] | mortality [3] | effect in at least one of the two categories (mortality or growth inhibition) [4] | mortality [5] | mortality on mixed population (mobile stages) [6] | mortality [7] | mortality [8]

Cc1cc(C2=NOC(c3cc(Cl)c(Cl)c(Cl)c3)(C(F)(F)F)C2)ccc1C(=O)NC1CN(S(=O)(=O)CF)C1 (centres unmarked) [Compound A16]
at least 80%: effect in at least one of the two categories (mortality or growth inhibition) [1] | effect in at least one of the two categories (mortality or growth inhibition) [2] | mortality [3] | effect in at least one of the two categories (mortality or growth inhibition) [4] | mortality [5] | mortality on mixed population (mobile stages) [6] | mortality [7] | mortality [8]

Cc1cc(C2=NOC(c3cc(Cl)cc(C(F)(F)F)c3)(C(F)(F)F)C2)ccc1C(=O)NC1CN(S(=O)(=O)CF)C1 (centres unmarked) [Compound A17]
at least 80%: effect in at least one of the two categories (mortality or growth inhibition) [1] | effect in at least one of the two categories (mortality or growth inhibition) [2] | mortality [3] | effect in at least one of the two categories (mortality or growth inhibition) [4] | mortality [5] | mortality on mixed population (mobile stages) [6] | mortality [7] | mortality [8]

CCS(=O)(=O)N1CC(NC(=O)c2ccc(C3=NOC(c4cc(Cl)cc(C(F)(F)F)c4)(C(F)(F)F)C3)cc2C)C1 (centres unmarked) [Compound A18]
at least 80%: effect in at least one of the two categories (mortality or growth inhibition) [1] | effect in at least one of the two categories (mortality or growth inhibition) [2] | mortality [3] | effect in at least one of the two categories (mortality or growth inhibition) [4] | mortality [5] | mortality on mixed population (mobile stages) [6] | mortality [7] | mortality [8]

Cc1cc(C2=NOC(c3cc(Cl)cc(Cl)c3)(C(F)(F)F)C2)ccc1C(=O)NC1CN(S(=O)(=O)C(F)F)C1 (centres unmarked) [Compound A21]
at least 80%: effect in at least one of the two categories (mortality or growth inhibition) [1] | effect in at least one of the two categories (mortality or growth inhibition) [2] | mortality [3] | effect in at least one of the two categories (mortality or growth inhibition) [4] | mortality [5] | mortality on mixed population (mobile stages) [6] | mortality [7] | mortality [8]

Cc1cc(C2=NOC(c3cc(Cl)cc(C(F)(F)F)c3)(C(F)(F)F)C2)ccc1C(=O)NC1CN(S(=O)(=O)C(F)F)C1 (centres unmarked) [Compound A22]
at least 80%: effect in at least one of the two categories (mortality or growth inhibition) [1] | effect in at least one of the two categories (mortality or growth inhibition) [2] | mortality [3] | effect in at least one of the two categories (mortality or growth inhibition) [4] | mortality [5] | mortality on mixed population (mobile stages) [6] | mortality [7] | mortality [8]
